Test results as given in article PMC4342408 (Structure(London, England:1993), 2014).
No constants are given. Whether binding was seen depends on the method and setting.

Legend:
[1] = target: HYPE (103–445) L258D mutant (human) (UniProt Q9BVA6); test: SAXS; small angle X-ray scattering of soluble HYPE constructs in solution; methods in Supplemental Experimental Procedures; both purified
[2] = target: HYPE (103–445) L258D mutant (human) (UniProt Q9BVA6); test: SEC; analytical gel filtration of purified HYPE constructs; both purified

B1: HYPE (103–445) L258D mutant (domain or fragment, UniProt Q9BVA6 103-445)
chain: KLEARAALNQALEMKRQGKREKAQKLFMHALKMDPDFVDALTEFGIFSEEDKDIIQADYLYTRALTISPYHEKALVNRDRTLPLVEEIDQRYFSIIDSKVKKVMSIPKGNSALRRVMEETYYHHIYHTVAIEGNTLTLSEIRHILETRYAVPGKSDEEQNEVIGMHAAMKYINTTLVSRIGSVTISDVLEIHRRVLGYVDPVEAGRFRTTQVLVGHHIPPHPQDVEKQMQEFVQWLNSEEAMNLHPVEFAALAHYKLVYIHPFIDGNGRTSRLLMNLILMQAGYPPITIRKEQRSDYYHVLEAANEGDVRPFIRFIAKCTETTLDTLLFATTEYSVALPEAQP
binding [1]: no binding
binding [2]: no binding
